## Screening data

Source: PubChem BioAssay AID1159506 (NCATS, 2015).

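Genome-wide siRNA knockdown in TC32 Ewing sarcoma cells, comparing luciferase light from an NR0B1-promoter reporter with a CMV-promoter reporter 48 hours after transfection.
Each siRNA was applied at 20 nM.
A z-score of the log NR0B1-over-CMV signal, less the median of siRNAs with the same seed; more negative means a stronger specific loss of the NR0B1 reporter.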

This is part of the screen; most of the strongest results are not listed here.
Sequences are the guide (antisense) strand, without overhang.

With AUAGUGCACGGCACAAGGC against CHST14 the assay gave seed-corrected z-score -0.2505. UCUUCUUUCUGCGACAUUC against ATF1 gave seed-corrected z-score -0.7324. With UCAGCGACCUUUCUAACCG against KIAA1211L the assay gave seed-corrected z-score -0.4795. For AAGUUGUACAGGAUGGUGG against TP73 the result was seed-corrected z-score -0.6325. UAGGGUUUCCAAUAUCUUC against TTI2 gave seed-corrected z-score -0.496. UCUGUGCAGAUUCAGACCG against HLA-DRB1 read seed-corrected z-score 0.8031. UAAUGAGCCAUGCACAGCC against SPACA5B read seed-corrected z-score -0.7819. For UAAGAGGAGAACAAUUUGG against PACRG-AS3 the result was seed-corrected z-score -0.3794.

Result for UUUUCGACUCUCGUAGUGG against ZMAT4 was seed-corrected z-score 0.04244. AUCGUUAACAUUAUAUUCC against HLTF read seed-corrected z-score 1.351. For UACUUUUCUCGAGUUCUUC against STK26 the result was seed-corrected z-score -0.9156. With AACAUGUUAACAGCUUGCU against FAM19A3 the assay gave seed-corrected z-score -1.573. For AUAGUCAUAGAUAUGCUUC against ACTRT3 the result was seed-corrected z-score 0.8448. UAUCUUCUCUUUGCUAUGA against HAVCR2 read seed-corrected z-score 0.6691. With UACUUUAUCAUGGAUUGUC against OTOGL the assay gave seed-corrected z-score -0.1411. UUGCUCAUUAGUCUCCUUC against FGD4 gave seed-corrected z-score 0.4427.

For UCAGCUGAAACAUCCGUUC against GPC6 the result was seed-corrected z-score 0.1733. UUUCUGAAGAUGCUCCGGG against CCDC85A gave seed-corrected z-score 0.379. Result for AAAGGUCUCCGGGAUCAGG against STK19 was seed-corrected z-score 0.5085. Result for UGUAUGAGUACGCUUGUGG against ZIC5 was seed-corrected z-score -1.34. UGAGCUCUAAGCCCUCCCU against NOL3 gave seed-corrected z-score 0.2089. For UGUUUGGGCAGGAAUCGGG against GDF15 the result was seed-corrected z-score -0.2557. For AGCUGAAUGACUUGUAGCU against IFNA8 the result was seed-corrected z-score -0.755. Result for UAGGACUUGACAUCGGAGC against DNAH1 was seed-corrected z-score -0.3795.

For AAGCUUACAUGAUUGAAUC against RALGPS2 the result was seed-corrected z-score -1.889. For UCAUGGUAAUCUUCUCUCC against SDCBP the result was seed-corrected z-score 0.08324. Result for UCAUCGUUCAGGCAAAUGC against SEMA3F was seed-corrected z-score -0.09384. With UUUGACUCCUGUAUGAAUC against GTSE1 the assay gave seed-corrected z-score 0.1598. Result for UUCGGUCCCGUAGACUUCC against LTF was seed-corrected z-score -0.08231.

The first 3 entries again:

{"sirna": "AUAGUGCACGGCACAAGGC", "target gene": "CHST14", "seed-corrected z-score": "-0.2505"}
{"sirna": "UCUUCUUUCUGCGACAUUC", "target gene": "ATF1", "seed-corrected z-score": "-0.7324"}
{"sirna": "UCAGCGACCUUUCUAACCG", "target gene": "KIAA1211L", "seed-corrected z-score": "-0.4795"}